Structures can show the parent of a compound that is named as a salt. This is one part of the list. Hit calls seldom repeat between salt and free forms of one compound.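 Kinases were expressed as nanoluciferase fusions in K562 cells and luminescence was read every 4 h between 2 and 18 h as percent of control, DMSO set to 100% and a positive control to 0%. A time point counts as decreased when the signal drops significantly (2 sigma). The hit call is the authors' own, does not follow from the count of time points alone, and its rule is not shown.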
target: CAMK2A (UniProt Q9UQM7); assay: number of time points (of 5) at which kinase-Nluc abundance scored as decreased, DMSO-normalised (count); higher = more persistent destabilization; conditions: K562; 2-18 h

The chains behind the UniProt entries cited, without tags or fusion partners.
UniProt Q9UQM7, whole entry: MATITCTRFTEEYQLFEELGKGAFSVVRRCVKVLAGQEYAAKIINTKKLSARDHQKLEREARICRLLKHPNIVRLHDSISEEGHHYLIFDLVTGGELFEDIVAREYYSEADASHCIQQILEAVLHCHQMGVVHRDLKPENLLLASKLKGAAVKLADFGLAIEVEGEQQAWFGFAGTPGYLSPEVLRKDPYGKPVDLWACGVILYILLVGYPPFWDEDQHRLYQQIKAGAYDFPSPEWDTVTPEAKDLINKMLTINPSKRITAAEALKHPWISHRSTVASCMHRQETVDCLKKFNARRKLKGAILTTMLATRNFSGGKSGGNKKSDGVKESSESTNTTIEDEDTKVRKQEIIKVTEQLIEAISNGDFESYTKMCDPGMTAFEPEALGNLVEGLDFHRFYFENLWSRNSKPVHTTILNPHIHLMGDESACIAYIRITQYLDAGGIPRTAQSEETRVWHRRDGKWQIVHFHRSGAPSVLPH

Row | SMILES | number of time points
1 | CS(=O)(=O)c1cccc(CNc2nc(Nc3ccc4c(c3)CCC(=O)N4)ncc2C(F)(F)F)c1 (10 µM) | 0
2 | Nc1nc(Nc2ccc3c(c2)CC[C@@H](N2CCCC2)CC3)nn1-c1cc2c(nn1)-c1ccccc1CCC2 [Bemcentinib] (2.5 µM) | 0
3 | Nc1[nH]nc2nnc(-c3c(-c4ccccc4)nn4ccccc34)cc12 (10 µM) | 0
4 | CN1CCN(Cc2ccc(-c3cnc4[nH]cc(-c5ccc6[nH]ccc6c5)c4c3)cc2)CC1 (2.5 µM) | 0
5 | CC(C)n1cnc2c(Nc3cccc(Cl)c3)nc(N[C@H]3CCCC[C@@H]3N)nc21 (2.5 µM) | 0
6 | CCC(F)(F)c1cc(N2CCC(S(C)(=O)=O)CC2)nc2sc(C(N)=O)c(N)c12 (10 µM) | 0
7 | CC(C)c1cc2c(c(O)c1O)[C@@]13CCCC(C)(C)[C@@H]1C[C@@H]2OC3=O [Carnosol] (2.5 µM) | 0
8 | COc1ccc2nc3ccc(OC)cc3c(SCCCN)c2c1 (10 µM) | 0
9 | COc1cc2nnc(C(N)=O)c(Nc3ccc(C)cc3F)c2cc1N1CCN(CCO)CC1 (2.5 µM) | 0
10 | Nc1ccc(C(=O)Nc2cccc(-c3nc(N4CCOCC4)c4oc5ncccc5c4n3)c2)cn1 (10 µM) | 0
11 | Cc1nn(CC(F)(F)F)cc1Nc1ncc(Br)c(NCc2ccc(S(N)(=O)=O)cc2)n1 (10 µM) | 0
12 | O=C1NC(=O)C(Cc2c[nH]c3c(Cl)cccc23)N1 (stereo unspecified) [Necroptosis-IN-1] (10 µM) | 0
13 | CCCCNc1ncc2c(-c3ccc(F)cc3)nn(CC3CCC(N)CC3)c2n1 (stereo unspecified) (2.5 µM) | 0
14 | Cn1cc(-c2nc(N[C@@H]3CCCC[C@@H]3N)c(F)c3c2C(=O)NC3)cn1 [TAK-659 (hydrochloride)] (2 µM) | 0
15 | O=C1OC(COc2ccccc2[N+](=O)[O-])CC1Cc1ccccc1 (stereo unspecified) (10 µM) | 0
16 | Cc1cnc(Nc2ccc(F)cc2Cl)nc1-c1c[nH]c(C(=O)N[C@H](CO)c2cccc(Cl)c2)c1 (10 µM) | 0
17 | N#Cc1cnc(Nc2cc(NC[C@H]3CNCCO3)c(C(F)(F)F)cn2)cn1 (10 µM) | 0
18 | CNc1cc2c(Nc3cccc(Br)c3)ncnc2cn1 (10 µM) | 0
19 | Cc1ncsc1-c1ccc(CNC(=O)[C@@H]2C[C@@H](O)CN2C(=O)[C@@H](NC(=O)COCCOc2ccc(-c3cc(Nc4ccc(OC(F)(F)F)cc4)ncn3)cc2)C(C)(C)C)cc1 (2.5 µM) | 0
20 | O=CN1CCN(c2ccc(C=C3C(=O)Nc4ccccc43)cc2)CC1 (10 µM) | 0
21 | CN1C(=O)[C@@H](NC(=O)c2cc(Cc3ccccc3)on2)COc2ccccc21 (10 µM) | 0
22 | O=C(CCl)c1c[nH]c2ccccc12 (2.5 µM) | 0
23 | NC(=O)c1c(NC(=O)C2CC2)sc2c1CCCC2 (10 µM) | 0
24 | CN(C)c1ccc(/C=C2\C(=O)Nc3ccccc32)c2ccccc12 (10 µM) | 0
25 | O=C(O)c1c[nH]c2cc(Cl)c(-c3ccc(C4(O)CCC4)cc3)cc12 (10 µM) | 0
26 | CC1=C(C#N)C(c2ccc3[nH]nc(C)c3c2)C(C#N)=C(C)N1 (10 µM) | 0

From entry 6 up to 7, copied from above:
Row | SMILES | number of time points
6 | CCC(F)(F)c1cc(N2CCC(S(C)(=O)=O)CC2)nc2sc(C(N)=O)c(N)c12 (10 µM) | 0
7 | CC(C)c1cc2c(c(O)c1O)[C@@]13CCCC(C)(C)[C@@H]1C[C@@H]2OC3=O [Carnosol] (2.5 µM) | 0

Source: the supplement of paper PMC12823440, “Inhibitors supercharge kinase turnover through native proteolytic circuits” (Nature, 2025)
